{"sequences": {"note": "By UniProt entry, the sequences of proteins in these tests, tags left out. Where a name states a change or a piece, a line headed by the entry shows the natural chain unless it says otherwise.", "UniProt Q9NXC5": "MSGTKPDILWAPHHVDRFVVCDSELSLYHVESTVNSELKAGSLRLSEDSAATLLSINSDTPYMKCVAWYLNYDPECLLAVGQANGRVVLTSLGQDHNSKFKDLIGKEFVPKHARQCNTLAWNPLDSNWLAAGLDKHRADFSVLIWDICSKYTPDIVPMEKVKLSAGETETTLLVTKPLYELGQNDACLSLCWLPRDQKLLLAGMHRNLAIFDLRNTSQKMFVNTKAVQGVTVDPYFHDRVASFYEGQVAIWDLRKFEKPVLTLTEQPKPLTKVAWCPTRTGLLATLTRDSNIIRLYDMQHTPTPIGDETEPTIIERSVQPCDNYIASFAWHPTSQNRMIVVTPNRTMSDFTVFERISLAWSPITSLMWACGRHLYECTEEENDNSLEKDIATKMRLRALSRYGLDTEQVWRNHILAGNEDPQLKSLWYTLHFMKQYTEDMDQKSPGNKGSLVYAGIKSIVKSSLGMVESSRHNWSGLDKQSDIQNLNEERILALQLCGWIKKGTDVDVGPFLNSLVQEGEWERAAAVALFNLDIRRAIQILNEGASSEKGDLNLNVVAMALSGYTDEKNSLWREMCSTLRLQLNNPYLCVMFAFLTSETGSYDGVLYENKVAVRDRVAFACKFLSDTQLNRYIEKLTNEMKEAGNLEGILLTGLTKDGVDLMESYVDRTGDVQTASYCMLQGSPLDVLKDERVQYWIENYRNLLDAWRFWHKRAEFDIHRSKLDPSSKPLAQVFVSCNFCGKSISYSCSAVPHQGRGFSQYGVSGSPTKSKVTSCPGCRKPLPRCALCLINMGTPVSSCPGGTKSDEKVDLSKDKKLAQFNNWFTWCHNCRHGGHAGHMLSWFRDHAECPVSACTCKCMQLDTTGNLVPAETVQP", "UniProt Q03111": "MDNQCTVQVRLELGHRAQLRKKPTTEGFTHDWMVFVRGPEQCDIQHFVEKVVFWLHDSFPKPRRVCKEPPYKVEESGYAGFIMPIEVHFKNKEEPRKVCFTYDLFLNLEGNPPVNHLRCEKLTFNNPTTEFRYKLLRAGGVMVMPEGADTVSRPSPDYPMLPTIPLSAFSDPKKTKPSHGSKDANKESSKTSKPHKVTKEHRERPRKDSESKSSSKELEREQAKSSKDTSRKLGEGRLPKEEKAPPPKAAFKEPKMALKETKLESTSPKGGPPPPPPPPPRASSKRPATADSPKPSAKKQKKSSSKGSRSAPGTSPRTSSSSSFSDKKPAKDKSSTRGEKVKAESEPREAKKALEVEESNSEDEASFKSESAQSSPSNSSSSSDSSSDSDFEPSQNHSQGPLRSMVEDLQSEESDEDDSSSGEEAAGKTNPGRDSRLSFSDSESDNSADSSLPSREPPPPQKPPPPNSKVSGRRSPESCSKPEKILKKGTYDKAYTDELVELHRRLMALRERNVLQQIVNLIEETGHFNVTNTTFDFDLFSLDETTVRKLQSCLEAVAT", "UniProt P22033": "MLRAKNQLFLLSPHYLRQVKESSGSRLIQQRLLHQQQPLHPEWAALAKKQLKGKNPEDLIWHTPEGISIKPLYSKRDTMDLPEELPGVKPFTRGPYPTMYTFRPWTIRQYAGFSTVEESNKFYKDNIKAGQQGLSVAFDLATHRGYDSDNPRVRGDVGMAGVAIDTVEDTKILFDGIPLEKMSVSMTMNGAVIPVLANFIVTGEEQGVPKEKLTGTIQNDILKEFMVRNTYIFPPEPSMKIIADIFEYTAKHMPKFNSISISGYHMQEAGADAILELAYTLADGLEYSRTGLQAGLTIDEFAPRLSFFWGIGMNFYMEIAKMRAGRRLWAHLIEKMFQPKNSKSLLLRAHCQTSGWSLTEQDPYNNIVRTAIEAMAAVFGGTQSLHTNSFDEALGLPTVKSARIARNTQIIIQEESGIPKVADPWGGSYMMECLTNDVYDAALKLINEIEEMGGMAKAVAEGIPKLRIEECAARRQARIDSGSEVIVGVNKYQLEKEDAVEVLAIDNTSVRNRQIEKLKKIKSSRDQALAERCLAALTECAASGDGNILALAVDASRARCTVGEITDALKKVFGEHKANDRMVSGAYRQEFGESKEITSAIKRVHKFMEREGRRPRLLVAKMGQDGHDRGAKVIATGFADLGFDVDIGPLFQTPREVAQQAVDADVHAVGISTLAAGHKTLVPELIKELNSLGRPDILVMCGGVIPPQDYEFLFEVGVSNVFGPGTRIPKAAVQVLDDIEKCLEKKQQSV", "UniProt Q7L9L4": "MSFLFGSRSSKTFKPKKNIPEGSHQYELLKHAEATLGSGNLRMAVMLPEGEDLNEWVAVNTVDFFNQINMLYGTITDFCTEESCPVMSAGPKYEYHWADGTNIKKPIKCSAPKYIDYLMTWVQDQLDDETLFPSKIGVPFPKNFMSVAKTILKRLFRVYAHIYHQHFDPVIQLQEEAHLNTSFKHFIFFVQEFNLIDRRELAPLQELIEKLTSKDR", "UniProt Q6WCQ1": "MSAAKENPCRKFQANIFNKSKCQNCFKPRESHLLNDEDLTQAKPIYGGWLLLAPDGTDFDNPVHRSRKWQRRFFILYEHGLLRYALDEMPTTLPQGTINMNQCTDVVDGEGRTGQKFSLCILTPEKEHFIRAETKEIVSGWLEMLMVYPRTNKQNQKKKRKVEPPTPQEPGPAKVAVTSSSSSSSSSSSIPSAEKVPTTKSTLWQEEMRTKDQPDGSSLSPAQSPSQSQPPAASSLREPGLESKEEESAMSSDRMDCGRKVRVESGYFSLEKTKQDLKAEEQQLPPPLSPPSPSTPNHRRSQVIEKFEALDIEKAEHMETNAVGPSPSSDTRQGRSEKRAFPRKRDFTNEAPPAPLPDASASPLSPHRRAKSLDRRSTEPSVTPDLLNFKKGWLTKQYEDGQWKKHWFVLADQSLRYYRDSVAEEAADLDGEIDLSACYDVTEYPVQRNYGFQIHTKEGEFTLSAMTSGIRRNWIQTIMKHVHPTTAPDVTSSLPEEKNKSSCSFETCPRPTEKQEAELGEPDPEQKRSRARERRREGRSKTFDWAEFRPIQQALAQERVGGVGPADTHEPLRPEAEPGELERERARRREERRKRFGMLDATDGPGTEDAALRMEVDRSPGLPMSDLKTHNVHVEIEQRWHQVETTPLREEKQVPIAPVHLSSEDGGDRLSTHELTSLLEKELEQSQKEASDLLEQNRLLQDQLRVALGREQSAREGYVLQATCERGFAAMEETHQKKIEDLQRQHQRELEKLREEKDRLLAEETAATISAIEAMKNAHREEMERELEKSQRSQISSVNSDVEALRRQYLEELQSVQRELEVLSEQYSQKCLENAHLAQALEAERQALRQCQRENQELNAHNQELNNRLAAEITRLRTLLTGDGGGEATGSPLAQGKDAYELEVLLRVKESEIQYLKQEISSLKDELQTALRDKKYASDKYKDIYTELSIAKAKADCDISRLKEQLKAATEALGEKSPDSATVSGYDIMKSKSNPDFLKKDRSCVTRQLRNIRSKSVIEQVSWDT", "UniProt Q8N4V1": "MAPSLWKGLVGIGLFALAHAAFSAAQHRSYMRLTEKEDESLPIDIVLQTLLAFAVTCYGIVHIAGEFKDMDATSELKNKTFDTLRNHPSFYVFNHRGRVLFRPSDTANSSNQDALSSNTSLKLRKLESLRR", "UniProt P49959": "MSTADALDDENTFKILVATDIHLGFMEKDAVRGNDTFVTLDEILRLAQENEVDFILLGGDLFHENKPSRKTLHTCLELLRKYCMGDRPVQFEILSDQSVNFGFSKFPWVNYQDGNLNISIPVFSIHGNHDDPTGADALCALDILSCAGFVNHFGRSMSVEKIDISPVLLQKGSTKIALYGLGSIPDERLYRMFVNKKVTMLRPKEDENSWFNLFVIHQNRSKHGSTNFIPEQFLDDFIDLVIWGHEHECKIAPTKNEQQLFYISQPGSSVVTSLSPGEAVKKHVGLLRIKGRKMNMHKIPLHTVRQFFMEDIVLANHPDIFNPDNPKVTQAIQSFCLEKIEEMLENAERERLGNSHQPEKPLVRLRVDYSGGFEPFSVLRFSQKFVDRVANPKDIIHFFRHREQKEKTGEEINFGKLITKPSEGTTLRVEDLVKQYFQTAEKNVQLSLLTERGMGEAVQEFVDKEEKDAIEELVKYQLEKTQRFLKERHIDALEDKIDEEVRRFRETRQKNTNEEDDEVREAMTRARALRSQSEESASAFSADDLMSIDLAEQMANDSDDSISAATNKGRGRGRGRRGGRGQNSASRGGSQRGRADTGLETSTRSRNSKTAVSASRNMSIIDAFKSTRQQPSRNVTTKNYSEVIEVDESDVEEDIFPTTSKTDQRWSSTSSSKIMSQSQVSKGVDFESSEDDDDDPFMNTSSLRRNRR", "UniProt O95563": "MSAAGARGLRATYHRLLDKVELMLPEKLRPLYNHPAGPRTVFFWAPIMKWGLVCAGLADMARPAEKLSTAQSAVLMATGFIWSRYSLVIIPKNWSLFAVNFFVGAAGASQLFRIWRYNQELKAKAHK", "UniProt Q9NZB8": "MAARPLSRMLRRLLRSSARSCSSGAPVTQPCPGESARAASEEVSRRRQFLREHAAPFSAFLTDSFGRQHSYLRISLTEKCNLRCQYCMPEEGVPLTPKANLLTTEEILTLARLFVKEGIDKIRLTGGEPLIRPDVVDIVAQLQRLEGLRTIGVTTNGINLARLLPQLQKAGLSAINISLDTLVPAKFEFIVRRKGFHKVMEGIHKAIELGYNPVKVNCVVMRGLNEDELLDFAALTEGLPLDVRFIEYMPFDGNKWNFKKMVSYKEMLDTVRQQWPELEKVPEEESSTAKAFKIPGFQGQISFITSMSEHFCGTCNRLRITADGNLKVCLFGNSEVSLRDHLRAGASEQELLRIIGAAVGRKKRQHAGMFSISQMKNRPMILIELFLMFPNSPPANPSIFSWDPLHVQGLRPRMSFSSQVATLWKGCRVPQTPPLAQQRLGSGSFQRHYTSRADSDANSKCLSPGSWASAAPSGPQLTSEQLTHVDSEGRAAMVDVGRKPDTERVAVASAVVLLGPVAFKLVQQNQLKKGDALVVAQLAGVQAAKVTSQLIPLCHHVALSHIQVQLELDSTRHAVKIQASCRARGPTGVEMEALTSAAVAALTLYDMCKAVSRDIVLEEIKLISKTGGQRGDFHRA", "UniProt Q9NYP9": "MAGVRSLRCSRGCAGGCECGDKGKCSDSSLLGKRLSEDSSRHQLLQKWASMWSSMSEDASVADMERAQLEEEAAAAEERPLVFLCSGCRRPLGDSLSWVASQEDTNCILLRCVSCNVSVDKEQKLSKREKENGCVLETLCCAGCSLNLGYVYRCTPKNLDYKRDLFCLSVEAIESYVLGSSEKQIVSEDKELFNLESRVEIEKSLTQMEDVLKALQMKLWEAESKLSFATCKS", "UniProt Q13724": "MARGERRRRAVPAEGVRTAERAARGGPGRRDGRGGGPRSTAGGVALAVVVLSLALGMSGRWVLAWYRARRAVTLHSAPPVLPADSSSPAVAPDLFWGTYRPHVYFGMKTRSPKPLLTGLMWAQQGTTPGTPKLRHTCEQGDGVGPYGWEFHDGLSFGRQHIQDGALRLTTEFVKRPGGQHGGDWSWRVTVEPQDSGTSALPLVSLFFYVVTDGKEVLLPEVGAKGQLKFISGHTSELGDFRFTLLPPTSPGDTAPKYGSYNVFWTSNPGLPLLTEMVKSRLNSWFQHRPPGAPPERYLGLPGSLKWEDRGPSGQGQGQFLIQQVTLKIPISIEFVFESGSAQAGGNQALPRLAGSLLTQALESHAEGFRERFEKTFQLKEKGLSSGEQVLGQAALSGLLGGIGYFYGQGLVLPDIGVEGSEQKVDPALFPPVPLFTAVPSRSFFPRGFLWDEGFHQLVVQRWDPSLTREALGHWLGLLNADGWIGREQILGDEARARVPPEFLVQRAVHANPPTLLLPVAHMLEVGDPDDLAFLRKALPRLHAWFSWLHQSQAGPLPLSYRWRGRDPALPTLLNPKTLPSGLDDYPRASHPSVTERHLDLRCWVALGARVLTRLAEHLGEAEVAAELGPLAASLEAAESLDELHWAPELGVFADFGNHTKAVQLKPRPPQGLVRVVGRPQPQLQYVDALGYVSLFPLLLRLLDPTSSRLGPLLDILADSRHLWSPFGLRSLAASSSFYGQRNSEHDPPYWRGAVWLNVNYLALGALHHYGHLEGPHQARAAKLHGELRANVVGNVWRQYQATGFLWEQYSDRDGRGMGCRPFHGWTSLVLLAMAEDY", "UniProt Q9H8M7": "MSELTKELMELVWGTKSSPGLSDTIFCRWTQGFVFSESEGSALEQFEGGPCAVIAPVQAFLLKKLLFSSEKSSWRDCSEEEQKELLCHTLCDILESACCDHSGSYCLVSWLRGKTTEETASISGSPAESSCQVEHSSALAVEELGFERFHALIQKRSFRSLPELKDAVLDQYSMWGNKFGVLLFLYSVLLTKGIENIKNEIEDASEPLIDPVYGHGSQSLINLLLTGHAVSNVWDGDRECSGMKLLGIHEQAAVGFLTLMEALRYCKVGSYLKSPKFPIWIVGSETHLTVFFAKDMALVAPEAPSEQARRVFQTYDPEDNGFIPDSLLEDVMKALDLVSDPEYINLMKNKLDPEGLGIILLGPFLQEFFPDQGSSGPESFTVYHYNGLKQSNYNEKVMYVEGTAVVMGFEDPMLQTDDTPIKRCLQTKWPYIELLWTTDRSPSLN"}, "source": "the supplement of paper PMC10849652", "note": "Some of the results follow."}
{"compound": "CC1=C(C(CC(=O)N1)C2=CC=C(C=C2)C(F)(F)F)C(=O)NC3=C(C=C4C(=C3)C=NN4)F", "test": "log2 fold change, soluble protein after heating vs DMSO (PISA); higher = thermal stabilisation; K562 cells, 10 uM, 30 min; active = over 0.2 and 3.5 SD of the protein, either way, in both replicates (recomputed)", "procedure,_shortened": "(§1)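 Soluble protein was quantified by TMTpro 16plex LC-MS/MS after channel sums were equalised. It was obtained as the supernatant after 21,000xg for 90 min from pooled aliquots of K562 cells (2×10^6 cells/mL, 10 μM compound, 30 min) heated for 3 min across 48°C-58°C and extracted in PBS with 0.5% NP-40 at 4°C. Thermal stability values are relative to control samples and come from duplicates. They are given as log2 fold changes.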"}
{"target": "MIOS (UniProt Q9NXC5)", "log2 fold change": "inactive: 0.008"}
{"target": "MLLT1 (UniProt Q03111)", "log2 fold change": "inactive: 0.154"}
{"target": "MRPL37 (UniProt Q9BZE1)", "log2 fold change": "inactive: 0.029"}
{"target": "MRPL30 isoform 2 (UniProt Q8TCC3)", "log2 fold change": "inactive: -0.047"}
{"target": "MLEC (UniProt Q14165)", "log2 fold change": "inactive: -0.007"}
{"target": "MRPL24 (UniProt Q96A35)", "log2 fold change": "inactive: -0.031"}
{"target": "MMUT (UniProt P22033)", "log2 fold change": "inactive: -0.013"}
{"target": "MRPL39 (UniProt Q9NYK5)", "log2 fold change": "inactive: 0.013"}
{"target": "MRPL54 (UniProt Q6P161)", "log2 fold change": "inactive: 0.05"}
{"target": "MRPL17 (UniProt Q9NRX2)", "log2 fold change": "inactive: -0.012"}
{"target": "MPG (UniProt P29372)", "log2 fold change": "inactive: -0.003"}
{"target": "MRPL48 (UniProt Q96GC5)", "log2 fold change": "inactive: 0.011"}
{"target": "MRM3 (UniProt Q9HC36)", "log2 fold change": "inactive: -0.045"}
{"target": "MRPL20 (UniProt Q9BYC9)", "log2 fold change": "inactive: -0.009"}
{"target": "MRPL49 (UniProt Q13405)", "log2 fold change": "inactive: 0.046"}
{"target": "MRPL4 (UniProt Q9BYD3)", "log2 fold change": "inactive: 0.092"}
{"target": "MPZL1 (UniProt O95297)", "log2 fold change": "inactive: -0.039"}
{"target": "MOB1B isoform 2 (UniProt Q7L9L4)", "log2 fold change": "inactive: -0.005"}
{"target": "MPRIP isoform 2 (UniProt Q6WCQ1)", "log2 fold change": "inactive: -0.04"}
{"target": "MRPL44 (UniProt Q9H9J2)", "log2 fold change": "inactive: -0.031"}
{"target": "MRPL21 (UniProt Q7Z2W9)", "log2 fold change": "inactive: -0.01"}
{"target": "MICOS10 (UniProt Q5TGZ0)", "log2 fold change": "inactive: 0.08"}
{"target": "MRPL40 (UniProt Q9NQ50)", "log2 fold change": "inactive: 0.052"}
{"target": "MMGT1 (UniProt Q8N4V1)", "log2 fold change": "inactive: -0.055"}
{"target": "MINPP1 (UniProt Q9UNW1)", "log2 fold change": "inactive: 0.007"}
{"target": "MRE11 isoform 3 (UniProt P49959)", "log2 fold change": "inactive: 0.008"}
{"target": "MPST isoform 2 (UniProt P25325)", "log2 fold change": "inactive: -0.083"}
{"target": "MRPL11 (UniProt Q9Y3B7)", "log2 fold change": "inactive: 0.037"}
{"target": "MRPL12 (UniProt P52815)", "log2 fold change": "inactive: 0.002"}
{"target": "MPC2 (UniProt O95563)", "log2 fold change": "inactive: -0.01"}
{"target": "MOCS1 isoform 8 (UniProt Q9NZB8)", "log2 fold change": "inactive: 0.033"}
{"target": "MIS18A (UniProt Q9NYP9)", "log2 fold change": "inactive: 0.051"}
{"target": "MRI1 (UniProt Q9BV20)", "log2 fold change": "inactive: -0.023"}
{"target": "MOGS (UniProt Q13724)", "log2 fold change": "inactive: -0.016"}
{"target": "MRPL45 (UniProt Q9BRJ2)", "log2 fold change": "inactive: -0.051"}
{"target": "MRPL43 isoform 4 (UniProt Q8N983)", "log2 fold change": "inactive: 0.128"}
{"target": "MINDY3 (UniProt Q9H8M7)", "log2 fold change": "inactive: -0.037"}
{"target": "MRPL13 (UniProt Q9BYD1)", "log2 fold change": "inactive: 0.117"}
{"compound": "CC1=C(C2=C(C=C1)C(=O)C3=CC=CC=C3N2CCCN)C", "test": "log2 fold change, soluble protein after heating vs DMSO (PISA); higher = thermal stabilisation; K562 cells, 10 uM, 30 min; active = over 0.2 and 3.5 SD of the protein, either way, in both replicates (recomputed)", "procedure,_shortened": "as §1"}
{"target": "MIOS (UniProt Q9NXC5)", "log2 fold change": "inactive: 0.031"}
{"target": "MLLT1 (UniProt Q03111)", "log2 fold change": "inactive: -0.133"}
{"target": "MRPL37 (UniProt Q9BZE1)", "log2 fold change": "inactive: -0.037"}
{"target": "MRPL30 isoform 2 (UniProt Q8TCC3)", "log2 fold change": "inactive: -0.157"}
{"target": "MLEC (UniProt Q14165)", "log2 fold change": "inactive: 0.014"}
{"target": "MRPL24 (UniProt Q96A35)", "log2 fold change": "inactive: -0.043"}
{"target": "MMUT (UniProt P22033)", "log2 fold change": "inactive: 0.015"}
{"target": "MRPL39 (UniProt Q9NYK5)", "log2 fold change": "inactive: -0.038"}
{"target": "MRPL54 (UniProt Q6P161)", "log2 fold change": "inactive: -0.278"}
{"target": "MRPL17 (UniProt Q9NRX2)", "log2 fold change": "inactive: 0.055"}
{"target": "MPG (UniProt P29372)", "log2 fold change": "inactive: 0.024"}
{"target": "MRPL48 (UniProt Q96GC5)", "log2 fold change": "inactive: -0.034"}
{"target": "MRM3 (UniProt Q9HC36)", "log2 fold change": "inactive: -0.42"}
{"target": "MRPL20 (UniProt Q9BYC9)", "log2 fold change": "inactive: -0.059"}
{"target": "MRPL49 (UniProt Q13405)", "log2 fold change": "inactive: 0.068"}
{"target": "MRPL4 (UniProt Q9BYD3)", "log2 fold change": "inactive: -0.111"}
{"target": "MPZL1 (UniProt O95297)", "log2 fold change": "inactive: 0.04"}
{"target": "MOB1B isoform 2 (UniProt Q7L9L4)", "log2 fold change": "inactive: -0.051"}
{"target": "MPRIP isoform 2 (UniProt Q6WCQ1)", "log2 fold change": "inactive: 0.109"}
{"target": "MRPL44 (UniProt Q9H9J2)", "log2 fold change": "inactive: -0.075"}
{"target": "MRPL21 (UniProt Q7Z2W9)", "log2 fold change": "inactive: -0.003"}
{"target": "MICOS10 (UniProt Q5TGZ0)", "log2 fold change": "inactive: 0.188"}
{"target": "MRPL40 (UniProt Q9NQ50)", "log2 fold change": "inactive: -0.037"}
{"target": "MMGT1 (UniProt Q8N4V1)", "log2 fold change": "inactive: 0.063"}
{"target": "MINPP1 (UniProt Q9UNW1)", "log2 fold change": "inactive: -0.029"}
{"target": "MRE11 isoform 3 (UniProt P49959)", "log2 fold change": "inactive: -0.019"}
{"target": "MPST isoform 2 (UniProt P25325)", "log2 fold change": "inactive: 0.085"}
{"target": "MRPL11 (UniProt Q9Y3B7)", "log2 fold change": "inactive: -0.074"}
{"target": "MRPL12 (UniProt P52815)", "log2 fold change": "inactive: 0.221"}
{"target": "MPC2 (UniProt O95563)", "log2 fold change": "inactive: 0.012"}
{"target": "MOCS1 isoform 8 (UniProt Q9NZB8)", "log2 fold change": "inactive: -0.032"}
{"target": "MIS18A (UniProt Q9NYP9)", "log2 fold change": "inactive: -0.016"}
{"target": "MRI1 (UniProt Q9BV20)", "log2 fold change": "inactive: 0.004"}
{"target": "MOGS (UniProt Q13724)", "log2 fold change": "inactive: 0.057"}
{"target": "MRPL45 (UniProt Q9BRJ2)", "log2 fold change": "inactive: -0.069"}
{"target": "MRPL43 isoform 4 (UniProt Q8N983)", "log2 fold change": "inactive: -0.103"}
{"target": "MINDY3 (UniProt Q9H8M7)", "log2 fold change": "inactive: 0.026"}
{"target": "MRPL13 (UniProt Q9BYD1)", "log2 fold change": "inactive: -0.018"}
